Here are results for 23 substances from PMC6373471.

Sequences of proteins named here, by UniProt entry; tags and fusion partners are left off. A change or cut given only in a name is not applied to a line headed by its entry.
UniProt Q9SQI2: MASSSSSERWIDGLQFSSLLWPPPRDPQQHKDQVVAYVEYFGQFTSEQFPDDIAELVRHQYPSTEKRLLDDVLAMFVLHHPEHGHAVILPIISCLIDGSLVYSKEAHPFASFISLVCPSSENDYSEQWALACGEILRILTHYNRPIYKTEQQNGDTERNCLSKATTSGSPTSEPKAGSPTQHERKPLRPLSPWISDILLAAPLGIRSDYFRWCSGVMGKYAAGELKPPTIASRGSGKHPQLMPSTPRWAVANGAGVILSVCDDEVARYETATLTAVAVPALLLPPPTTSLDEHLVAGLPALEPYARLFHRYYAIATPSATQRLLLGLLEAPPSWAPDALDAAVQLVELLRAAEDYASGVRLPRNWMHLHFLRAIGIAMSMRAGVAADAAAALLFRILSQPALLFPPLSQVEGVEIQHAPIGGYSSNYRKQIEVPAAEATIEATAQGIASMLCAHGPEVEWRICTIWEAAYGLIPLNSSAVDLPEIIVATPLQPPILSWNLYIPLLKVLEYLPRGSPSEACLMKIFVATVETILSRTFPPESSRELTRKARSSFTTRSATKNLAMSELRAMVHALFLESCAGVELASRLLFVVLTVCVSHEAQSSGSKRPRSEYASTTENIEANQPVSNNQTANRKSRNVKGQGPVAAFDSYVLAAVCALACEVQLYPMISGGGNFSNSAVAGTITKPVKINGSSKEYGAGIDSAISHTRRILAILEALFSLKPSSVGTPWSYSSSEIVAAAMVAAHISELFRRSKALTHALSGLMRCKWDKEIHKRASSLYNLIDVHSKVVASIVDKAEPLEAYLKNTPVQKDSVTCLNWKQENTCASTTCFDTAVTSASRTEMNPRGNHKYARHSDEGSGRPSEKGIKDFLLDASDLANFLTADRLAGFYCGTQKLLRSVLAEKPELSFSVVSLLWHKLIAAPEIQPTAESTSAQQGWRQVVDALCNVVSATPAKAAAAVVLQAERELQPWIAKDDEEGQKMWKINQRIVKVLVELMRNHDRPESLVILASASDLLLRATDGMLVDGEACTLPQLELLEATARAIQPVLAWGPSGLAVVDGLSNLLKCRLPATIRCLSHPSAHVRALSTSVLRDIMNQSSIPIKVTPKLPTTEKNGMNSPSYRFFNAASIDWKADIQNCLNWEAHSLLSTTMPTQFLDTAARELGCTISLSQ
UniProt Q9MAK9: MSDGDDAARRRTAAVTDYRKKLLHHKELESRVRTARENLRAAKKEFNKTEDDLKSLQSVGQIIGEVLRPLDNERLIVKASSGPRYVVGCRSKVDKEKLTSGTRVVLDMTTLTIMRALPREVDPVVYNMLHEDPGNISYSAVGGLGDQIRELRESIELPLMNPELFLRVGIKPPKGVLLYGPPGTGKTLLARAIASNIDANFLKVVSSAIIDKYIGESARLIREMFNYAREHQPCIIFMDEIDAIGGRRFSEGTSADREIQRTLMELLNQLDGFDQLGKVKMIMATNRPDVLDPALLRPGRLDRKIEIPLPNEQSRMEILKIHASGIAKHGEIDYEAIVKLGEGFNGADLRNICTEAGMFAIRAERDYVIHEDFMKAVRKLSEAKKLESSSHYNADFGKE
UniProt P0DH91: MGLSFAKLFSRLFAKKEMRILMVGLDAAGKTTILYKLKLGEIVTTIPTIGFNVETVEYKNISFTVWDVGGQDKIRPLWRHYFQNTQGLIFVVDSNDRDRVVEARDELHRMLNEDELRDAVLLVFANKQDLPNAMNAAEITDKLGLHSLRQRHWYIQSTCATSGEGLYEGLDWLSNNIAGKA
UniProt Q96250: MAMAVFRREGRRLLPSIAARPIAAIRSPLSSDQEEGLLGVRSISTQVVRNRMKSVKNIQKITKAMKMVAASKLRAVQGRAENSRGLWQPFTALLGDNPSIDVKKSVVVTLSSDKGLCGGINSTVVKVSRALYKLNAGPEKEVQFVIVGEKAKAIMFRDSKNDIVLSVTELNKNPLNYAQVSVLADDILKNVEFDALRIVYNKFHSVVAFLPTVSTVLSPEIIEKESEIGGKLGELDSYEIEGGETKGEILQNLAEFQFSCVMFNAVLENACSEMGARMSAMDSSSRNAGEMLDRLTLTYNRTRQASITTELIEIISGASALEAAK
UniProt O80576: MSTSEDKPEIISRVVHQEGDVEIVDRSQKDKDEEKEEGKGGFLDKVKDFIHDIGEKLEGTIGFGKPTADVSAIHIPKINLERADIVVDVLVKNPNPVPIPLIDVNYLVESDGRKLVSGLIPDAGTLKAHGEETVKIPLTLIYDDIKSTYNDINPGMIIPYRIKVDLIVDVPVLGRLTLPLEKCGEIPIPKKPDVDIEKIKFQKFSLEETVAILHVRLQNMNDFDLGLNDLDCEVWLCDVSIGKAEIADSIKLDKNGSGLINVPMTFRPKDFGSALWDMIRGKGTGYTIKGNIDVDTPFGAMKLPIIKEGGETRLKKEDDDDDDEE
UniProt P21238: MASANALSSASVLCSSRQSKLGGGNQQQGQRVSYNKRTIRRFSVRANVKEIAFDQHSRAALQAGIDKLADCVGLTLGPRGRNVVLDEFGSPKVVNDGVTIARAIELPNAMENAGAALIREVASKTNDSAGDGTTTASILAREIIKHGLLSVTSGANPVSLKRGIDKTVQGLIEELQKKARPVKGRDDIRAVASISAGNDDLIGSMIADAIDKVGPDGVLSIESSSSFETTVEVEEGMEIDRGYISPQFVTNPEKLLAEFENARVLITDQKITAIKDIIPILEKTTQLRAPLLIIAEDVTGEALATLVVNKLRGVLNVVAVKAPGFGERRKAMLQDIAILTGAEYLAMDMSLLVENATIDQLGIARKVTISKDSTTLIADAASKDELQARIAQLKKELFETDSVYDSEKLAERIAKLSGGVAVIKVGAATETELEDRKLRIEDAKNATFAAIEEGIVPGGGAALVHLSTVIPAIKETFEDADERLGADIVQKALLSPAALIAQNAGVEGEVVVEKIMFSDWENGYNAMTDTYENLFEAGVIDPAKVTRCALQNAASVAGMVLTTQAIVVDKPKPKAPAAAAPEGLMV
UniProt Q9CAI7: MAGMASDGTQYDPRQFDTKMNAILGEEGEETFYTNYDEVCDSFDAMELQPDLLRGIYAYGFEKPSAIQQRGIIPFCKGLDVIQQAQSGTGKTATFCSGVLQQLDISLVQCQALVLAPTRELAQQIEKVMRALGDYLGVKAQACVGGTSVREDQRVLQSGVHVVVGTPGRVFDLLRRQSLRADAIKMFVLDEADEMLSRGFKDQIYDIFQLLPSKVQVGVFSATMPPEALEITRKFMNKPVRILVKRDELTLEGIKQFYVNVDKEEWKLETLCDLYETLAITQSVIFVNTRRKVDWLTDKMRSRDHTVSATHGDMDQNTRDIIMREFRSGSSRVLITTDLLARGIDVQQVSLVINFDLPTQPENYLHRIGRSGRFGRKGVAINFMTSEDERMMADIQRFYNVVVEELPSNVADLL
UniProt F4HVR7: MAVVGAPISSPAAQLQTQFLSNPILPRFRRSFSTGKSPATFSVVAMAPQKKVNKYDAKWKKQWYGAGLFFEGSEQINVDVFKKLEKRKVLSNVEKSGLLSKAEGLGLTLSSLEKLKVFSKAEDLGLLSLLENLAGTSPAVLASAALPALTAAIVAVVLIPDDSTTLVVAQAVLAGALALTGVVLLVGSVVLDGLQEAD
UniProt Q9C9W9: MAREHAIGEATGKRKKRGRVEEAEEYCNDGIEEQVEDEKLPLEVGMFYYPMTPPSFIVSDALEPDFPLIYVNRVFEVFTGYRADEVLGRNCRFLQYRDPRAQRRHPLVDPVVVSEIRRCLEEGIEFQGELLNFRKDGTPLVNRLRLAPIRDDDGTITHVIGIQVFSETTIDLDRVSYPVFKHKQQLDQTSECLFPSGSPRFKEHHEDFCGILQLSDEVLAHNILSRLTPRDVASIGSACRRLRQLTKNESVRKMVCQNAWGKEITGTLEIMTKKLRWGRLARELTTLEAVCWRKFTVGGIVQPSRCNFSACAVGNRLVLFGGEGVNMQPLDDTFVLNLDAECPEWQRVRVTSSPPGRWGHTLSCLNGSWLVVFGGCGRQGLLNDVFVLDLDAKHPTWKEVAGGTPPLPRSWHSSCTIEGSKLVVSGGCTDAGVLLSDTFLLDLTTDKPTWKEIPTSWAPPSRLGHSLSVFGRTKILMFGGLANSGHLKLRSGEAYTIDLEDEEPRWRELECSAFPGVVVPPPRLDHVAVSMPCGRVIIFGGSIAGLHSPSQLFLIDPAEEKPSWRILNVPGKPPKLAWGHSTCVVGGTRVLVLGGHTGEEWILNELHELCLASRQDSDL
UniProt Q8W420: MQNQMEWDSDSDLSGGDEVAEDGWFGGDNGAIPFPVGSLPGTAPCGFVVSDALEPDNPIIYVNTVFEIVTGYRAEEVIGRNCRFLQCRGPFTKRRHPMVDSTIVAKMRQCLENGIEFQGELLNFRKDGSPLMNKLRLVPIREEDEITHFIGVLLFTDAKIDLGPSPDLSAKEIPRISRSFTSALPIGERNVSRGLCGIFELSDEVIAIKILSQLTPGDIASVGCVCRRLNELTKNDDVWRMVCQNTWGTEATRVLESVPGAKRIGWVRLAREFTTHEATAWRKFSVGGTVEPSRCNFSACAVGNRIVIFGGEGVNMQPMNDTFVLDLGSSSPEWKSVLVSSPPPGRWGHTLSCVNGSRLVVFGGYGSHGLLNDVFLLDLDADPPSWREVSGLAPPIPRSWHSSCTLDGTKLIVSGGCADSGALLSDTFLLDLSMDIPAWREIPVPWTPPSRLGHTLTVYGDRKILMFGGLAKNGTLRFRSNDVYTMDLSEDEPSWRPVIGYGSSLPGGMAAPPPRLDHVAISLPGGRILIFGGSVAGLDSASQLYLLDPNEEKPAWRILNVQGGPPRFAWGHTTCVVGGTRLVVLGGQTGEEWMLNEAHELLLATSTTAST
UniProt O24456: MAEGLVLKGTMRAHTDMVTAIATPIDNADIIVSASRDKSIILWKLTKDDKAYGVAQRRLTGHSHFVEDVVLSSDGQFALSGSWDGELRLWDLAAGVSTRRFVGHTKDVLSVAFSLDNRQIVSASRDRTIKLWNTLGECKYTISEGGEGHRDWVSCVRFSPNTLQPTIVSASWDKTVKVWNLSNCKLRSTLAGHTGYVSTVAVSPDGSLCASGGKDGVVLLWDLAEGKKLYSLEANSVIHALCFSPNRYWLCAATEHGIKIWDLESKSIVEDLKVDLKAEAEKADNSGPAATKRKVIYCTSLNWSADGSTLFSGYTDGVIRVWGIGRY
UniProt P56808: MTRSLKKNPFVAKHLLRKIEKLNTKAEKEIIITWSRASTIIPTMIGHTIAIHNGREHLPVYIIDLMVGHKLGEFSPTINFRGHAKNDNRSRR
UniProt P28769: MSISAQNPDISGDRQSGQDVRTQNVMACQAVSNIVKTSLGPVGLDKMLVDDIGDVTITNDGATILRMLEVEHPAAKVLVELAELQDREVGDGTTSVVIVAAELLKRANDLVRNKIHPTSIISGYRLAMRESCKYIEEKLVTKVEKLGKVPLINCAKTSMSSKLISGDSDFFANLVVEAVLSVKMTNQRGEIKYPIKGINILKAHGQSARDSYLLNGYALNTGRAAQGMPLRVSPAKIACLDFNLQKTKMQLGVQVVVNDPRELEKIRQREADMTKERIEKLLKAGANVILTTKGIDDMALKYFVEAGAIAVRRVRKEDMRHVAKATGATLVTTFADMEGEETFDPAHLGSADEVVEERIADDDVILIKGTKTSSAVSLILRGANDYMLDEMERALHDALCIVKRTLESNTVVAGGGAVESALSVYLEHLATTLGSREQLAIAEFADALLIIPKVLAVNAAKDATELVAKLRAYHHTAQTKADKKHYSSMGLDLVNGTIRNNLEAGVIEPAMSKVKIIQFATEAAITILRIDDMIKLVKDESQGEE
UniProt Q94BT6: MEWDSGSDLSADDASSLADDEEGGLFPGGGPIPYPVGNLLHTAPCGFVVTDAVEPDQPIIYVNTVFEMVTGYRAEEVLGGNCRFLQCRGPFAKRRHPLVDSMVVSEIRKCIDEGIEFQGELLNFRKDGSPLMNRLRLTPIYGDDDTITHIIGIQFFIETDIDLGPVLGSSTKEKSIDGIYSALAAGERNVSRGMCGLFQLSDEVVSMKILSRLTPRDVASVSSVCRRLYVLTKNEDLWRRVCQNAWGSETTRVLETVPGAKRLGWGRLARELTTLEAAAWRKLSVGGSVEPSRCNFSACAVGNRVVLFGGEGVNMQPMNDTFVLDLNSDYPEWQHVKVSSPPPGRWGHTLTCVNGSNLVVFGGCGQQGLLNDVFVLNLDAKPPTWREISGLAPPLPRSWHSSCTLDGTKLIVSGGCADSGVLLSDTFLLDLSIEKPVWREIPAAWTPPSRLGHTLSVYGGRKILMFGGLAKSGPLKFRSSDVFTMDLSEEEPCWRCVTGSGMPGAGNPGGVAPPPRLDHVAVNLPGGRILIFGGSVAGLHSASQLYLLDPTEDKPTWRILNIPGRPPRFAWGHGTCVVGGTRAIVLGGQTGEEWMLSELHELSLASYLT

These are yes or no findings as the source states them, for the method shown. Binding seen in cells or lysates may run through a third protein. Here binding means that the protein was enriched with, or labelled near, the bait; the list need not be complete.

In assay [1] the target is GIGANTEA with C-terminal 3xFLAG-6xHis tag (GI‐3F6H) (Arabidopsis thaliana) (UniProt Q9SQI2). Briefly: affinity purification with mass spectrometry; time series study: tandem affinity purification (FLAG and His tags) of GI-3F6H from rosettes grown in short days, six time points plus ZT31; on-bead digest, label-free quantitation; WT plants as control.
Assay [2] shares this target. Nature of the assay: affinity purification with mass spectrometry; qualitative study: tandem affinity purification (FLAG and His tags) of GI-3F6H from plants grown in long days and harvested at ZT13 on day 14; RIPA or SII buffer; on-bead digest, peptide counts; WT plants as control.
For assay [3] the target is unchanged. Briefly: affinity purification with mass spectrometry; preliminary study: tandem affinity purification of GI-3F6H, silver-stained gel, LC-MS of excised bands; plants harvested at ZT8.

“AAA‐type ATPase (AT1G45000.1; AT4G27680) (from UniProt Q9MAK9)”: in assay [1], the binding result is “binds”.
As for ARF2‐B (from UniProt P0DH91 1-181), the binding entry in assay [2] was “binds”.
The same measure, in the same setting: then AT5G23540 (from UniProt Q9LT08 1-308), with “binds”.
As for ATP3 (from UniProt Q96250), the binding entry in assay [1] was “binds”.
For At2G44060 (from UniProt O80576), the binding entry in assay [2] is on record as “binds”.
For the substance CALS12 (from UniProt Q9ZT82 1-1780), the binding result in assay [2] is given as “binds”.
On to CHC2 (from UniProt Q0WLB5 1-1703), for which the binding result in assay [2] was “binds”.
CPN60A (from UniProt P21238): the binding entry in assay [1] is on record as “binds”.
On to “DEA(D/H)‐box RNA helicase (AT1G72730) (from UniProt Q9CAI7 1-414)”, for which, in assay [1], the binding entry was “binds”.
Consider DUF1118 (from UniProt F4HVR7), for which the binding result in assay [1] is “binds”.
As for EFTu/EF1‐A (from UniProt Q8GTY0 1-449), the binding entry in assay [2] is reported as “binds”.
With EIF4A1 (from UniProt P41376 1-412), the binding entry in assay [2] is listed as “binds”.
With “FLAVIN‐BINDING, KELCH REPEAT, F‐BOX 1 (FKF1) (from UniProt Q9C9W9 1-619)”, the binding entry in assay [1], in assay [3] and in assay [2] was “binds” throughout.
Take “LIGHT KELCH PROTEIN 2 (LKP2) (from UniProt Q8W420 1-611)”: the binding result in assay [1], in assay [3] and in assay [2] was “binds” throughout.
With PHOT2 (from UniProt P93025 1-915), in assay [1], the binding result is “binds”.
As to RACK1A (from UniProt O24456 1-327), in assay [1], the binding result was “binds”.
For the substance RACK1B_AT (from UniProt Q9C4Z6 1-326), the binding result in assay [1] is “binds”.
For RPS19 (from UniProt P56808 1-92), the binding entry in assay [1] is on record as “binds”.
Turning to “TCP‐1 (AT3G20050) (from UniProt P28769 1-545)”, the binding entry in assay [1] and in assay [2] was “binds” each time.
Regarding “TCP‐1/cpn60 chaperonin (AT3G02530) (from UniProt Q9M888 1-535)”, the binding entry in assay [1] was “binds”.
For the substance “TCP‐1/cpn60 chaperonin (AT3G13470) (from UniProt Q9LJE4 51-596)”, the binding entry in assay [1] is “binds”.
As to TPR4 (from UniProt Q8VZ31), the binding entry in assay [1] and in assay [3] was “binds” in each case.
“ZEITLUPE (ZTL) (from UniProt Q94BT6 1-609)”: the binding result in assay [1], in assay [3] and in assay [2] was “binds” each time.
